Results deposited as PubChem BioAssay AID1259308 (NCATS, 2017).
Shown is one part, drawn at random, of about 59,000 deposited reagents. About 1,510 of them (2.6%) count as active. 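Calls use total luciferase alone and ignore viability, so some active siRNAs may act by altering cell number.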 Entries without a mark were called inactive. The numbers tell different reagents against one gene apart.

Screen: 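Candidate targets for better recombinant protein yield in mammalian cells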 (primary screen)
Cells: human HEK293 embryonic kidney cells stably expressing firefly luciferase (HEK-CMV-Luc2-Hygro)
Knock-down reagent: single siRNA against human genes, 0.8 pmol siRNA per well
Duration: 72 h
Measurement: 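Reporter luminescence and viable-cell signal on separate replicate plates, given as percent of non-targeting control and median/MAD z-scores, plus per-cell luciferase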
Direction: total luciferase, z-score and total luciferase, % of control: higher = more reporter protein produced; luciferase per cell, z-score: higher = more reporter output per viable cell; viable cells, % of control: higher = more viable cells
Call rule: 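An siRNA counts as active if its total luciferase robust z-score exceeds 3; genes with two or more such siRNAs out of three were retested with fresh siRNAs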
Calls: active = raised luciferase; inactive = no rise

| target gene | reagent | total luciferase, z-score | total luciferase, % of control | luciferase per cell, z-score | viable cells, % of control |
| --- | --- | --- | --- | --- | --- |
| FUT7 (fucosyltransferase 7) | 1 | -0.067 | 80.6 | 0.08 | 88.1 |
| FUT7 (fucosyltransferase 7) | 2 | 0.0359 | 82.6 | 0.0689 | 90.6 |
| FUT7 (fucosyltransferase 7) | 3 | -1.59 | 50.3 | -2.13 | 98.6 |
| ZNF853 (zinc finger protein 853) | 1 | 0.19 | 85.7 | 0.211 | 90.6 |
| ZNF853 (zinc finger protein 853) | 2 | -1.71 | 47.8 | -2.06 | 91.8 |
| ZNF853 (zinc finger protein 853) | 3 | -0.329 | 75.3 | -0.979 | 109 |
| PRSS59P (serine protease 59, pseudogene) | 1 | -1.12 | 59.7 | -0.64 | 78.9 |
| PRSS59P (serine protease 59, pseudogene) | 2 | -0.047 | 81 | -0.00831 | 90.7 |
| PRSS59P (serine protease 59, pseudogene) | 3 | -0.352 | 74.9 | 0.113 | 81.2 |
| ATP8A1 (ATPase phospholipid transporting 8A1) | 1 | -0.915 | 63.7 | -0.833 | 88.6 |
| ATP8A1 (ATPase phospholipid transporting 8A1) | 2 | 0.268 | 87.2 | 0.258 | 91 |
| ATP8A1 (ATPase phospholipid transporting 8A1) | 3 | -2.02 | 41.7 | -2.82 | 98.1 |
| DPP7 (dipeptidyl peptidase 7) | 1 | -1.03 | 61.4 | -0.77 | 84 |
| DPP7 (dipeptidyl peptidase 7) | 2 | 0.645 | 94.7 | 0.362 | 96.2 |
| DPP7 (dipeptidyl peptidase 7) | 3 | -0.786 | 66.3 | -0.495 | 84.4 |
| ARMC1 (armadillo repeat containing 1) | 1 | 0.318 | 88.2 | 0.796 | 79.9 |
| ARMC1 (armadillo repeat containing 1) | 2 | -0.978 | 62.4 | -0.374 | 77 |
| ARMC1 (armadillo repeat containing 1) | 3 | -0.362 | 74.7 | -0.381 | 92.3 |
| LPAR5 (lysophosphatidic acid receptor 5) | 1 | 1.18 | 105 | 1.01 | 90.3 |
| LPAR5 (lysophosphatidic acid receptor 5) | 2 | 0.234 | 86.5 | -0.0578 | 98.2 |
| LPAR5 (lysophosphatidic acid receptor 5) | 3 | 0.467 | 91.2 | 0.438 | 90.8 |
| PPM1H (protein phosphatase, Mg2+/Mn2+ dependent 1H) | 1 | -0.165 | 78.6 | -0.128 | 90.8 |
| PPM1H (protein phosphatase, Mg2+/Mn2+ dependent 1H) | 2 | 0.866 | 99.1 | 0.522 | 96.5 |
| PPM1H (protein phosphatase, Mg2+/Mn2+ dependent 1H) | 3 | -0.308 | 75.8 | -0.0868 | 86.6 |

5 successive records from above:
| target gene | reagent | total luciferase, z-score | total luciferase, % of control | luciferase per cell, z-score | viable cells, % of control |
| --- | --- | --- | --- | --- | --- |
| DPP7 (dipeptidyl peptidase 7) | 3 | -0.786 | 66.3 | -0.495 | 84.4 |
| ARMC1 (armadillo repeat containing 1) | 1 | 0.318 | 88.2 | 0.796 | 79.9 |
| ARMC1 (armadillo repeat containing 1) | 2 | -0.978 | 62.4 | -0.374 | 77 |
| ARMC1 (armadillo repeat containing 1) | 3 | -0.362 | 74.7 | -0.381 | 92.3 |
| LPAR5 (lysophosphatidic acid receptor 5) | 1 | 1.18 | 105 | 1.01 | 90.3 |

The listing continues:
| target gene | reagent | total luciferase, z-score | total luciferase, % of control | luciferase per cell, z-score | viable cells, % of control |
| --- | --- | --- | --- | --- | --- |
| DDX42 (DEAD-box helicase 42) | 1 | 1.55 | 113 | 1.44 | 86.2 |
| DDX42 (DEAD-box helicase 42) | 2 | -0.96 | 62.8 | -1.2 | 96.1 |
| DDX42 (DEAD-box helicase 42) | 3 | 0.689 | 95.6 | 1.52 | 71.7 |
| KCNN3 (potassium calcium-activated channel subfamily N member 3) | 1 | -0.84 | 65.2 | -0.785 | 89.6 |
| KCNN3 (potassium calcium-activated channel subfamily N member 3) | 2 | -1.41 | 53.9 | -1.34 | 85.7 |
| KCNN3 (potassium calcium-activated channel subfamily N member 3) | 3 | 1.18 | 105 | 0.273 | 110 |
| ROGDI (rogdi atypical leucine zipper) | 1 | 1.42 | 110 | 1 | 94.4 |
| ROGDI (rogdi atypical leucine zipper) | 2 | -0.54 | 71.1 | -0.951 | 102 |
| ROGDI (rogdi atypical leucine zipper) | 3 | -1.43 | 53.4 | -0.0588 | 60.6 |
| CIAO2B (cytosolic iron-sulfur assembly component 2B) | 1 | 0.3 | 87.8 | -0.146 | 102 |
| CIAO2B (cytosolic iron-sulfur assembly component 2B) | 2 | 0.362 | 89.1 | -0.169 | 104 |
| CIAO2B (cytosolic iron-sulfur assembly component 2B) | 3 | -0.683 | 68.3 | -0.893 | 96.6 |
| KMT2D (lysine methyltransferase 2D) | 1 | 0.604 | 93.9 | 0.384 | 94.8 |
| KMT2D (lysine methyltransferase 2D) | 2 | -1.29 | 56.2 | 0.00894 | 62.6 |
| KMT2D (lysine methyltransferase 2D) | 3 | -0.051 | 80.9 | 0.744 | 74.3 |
| CLN8 (CLN8 transmembrane ER and ERGIC protein) | 1 | 1.53 | 112 | 1.92 | 75.8 |
| CLN8 (CLN8 transmembrane ER and ERGIC protein) | 2 | -0.157 | 78.8 | 0.347 | 80.3 |
| CLN8 (CLN8 transmembrane ER and ERGIC protein) | 3 | 0.301 | 87.9 | -0.105 | 101 |
| POC1A (POC1 centriolar protein A) | 1 | 3.31 (active) | 148 | 2.44 | 86.8 |
| POC1A (POC1 centriolar protein A) | 2 | 0.823 | 98.3 | 0.794 | 89.1 |
| POC1A (POC1 centriolar protein A) | 3 | -0.553 | 70.9 | -0.452 | 89.2 |
| ZAR1 (zygote arrest 1) | 1 | 0.709 | 96 | 0.486 | 94.4 |
| ZAR1 (zygote arrest 1) | 2 | -1.48 | 52.4 | -0.958 | 75.4 |
| ZAR1 (zygote arrest 1) | 3 | 0.385 | 89.6 | -0.128 | 103 |
| CDX2 (caudal type homeobox 2) | 1 | -0.533 | 71.3 | -0.339 | 87.1 |
| CDX2 (caudal type homeobox 2) | 2 | -0.57 | 70.6 | -1.59 | 120 |
| CDX2 (caudal type homeobox 2) | 3 | 0.426 | 90.4 | 0.204 | 95.7 |
| KIAA1958 | 1 | 1.92 | 120 | 2.62 | 67.4 |
| KIAA1958 | 2 | 0.874 | 99.3 | 1.09 | 83.3 |
| KIAA1958 | 3 | 0.255 | 87 | 0.573 | 83.6 |
| ST6GAL1 (ST6 beta-galactoside alpha-2,6-sialyltransferase 1) | 1 | -1.06 | 60.7 | -1.16 | 92 |
| ST6GAL1 (ST6 beta-galactoside alpha-2,6-sialyltransferase 1) | 2 | -1.15 | 59.1 | -1.76 | 105 |
| ST6GAL1 (ST6 beta-galactoside alpha-2,6-sialyltransferase 1) | 3 | -0.372 | 74.5 | 0.284 | 77.2 |
